Reference: article PMC5372602

By UniProt entry, the sequences of proteins in these tests, tags left out. Where a name states a change or a piece, a line headed by the entry shows the natural chain unless it says otherwise.
UniProt Q13153: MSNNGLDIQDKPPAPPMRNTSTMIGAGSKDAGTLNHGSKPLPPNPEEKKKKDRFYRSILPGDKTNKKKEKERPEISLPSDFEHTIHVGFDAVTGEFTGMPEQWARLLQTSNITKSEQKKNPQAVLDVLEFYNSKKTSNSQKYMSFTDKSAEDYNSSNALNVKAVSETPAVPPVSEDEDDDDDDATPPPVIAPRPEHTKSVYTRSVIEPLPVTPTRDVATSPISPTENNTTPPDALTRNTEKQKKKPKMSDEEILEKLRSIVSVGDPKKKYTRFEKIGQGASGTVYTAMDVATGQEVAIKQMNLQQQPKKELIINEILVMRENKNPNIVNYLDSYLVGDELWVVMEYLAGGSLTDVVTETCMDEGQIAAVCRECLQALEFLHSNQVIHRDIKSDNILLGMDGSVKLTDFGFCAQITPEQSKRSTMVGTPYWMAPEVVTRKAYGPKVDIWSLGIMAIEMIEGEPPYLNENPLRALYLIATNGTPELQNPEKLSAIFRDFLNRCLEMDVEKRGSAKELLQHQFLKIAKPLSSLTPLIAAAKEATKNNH
UniProt P60953: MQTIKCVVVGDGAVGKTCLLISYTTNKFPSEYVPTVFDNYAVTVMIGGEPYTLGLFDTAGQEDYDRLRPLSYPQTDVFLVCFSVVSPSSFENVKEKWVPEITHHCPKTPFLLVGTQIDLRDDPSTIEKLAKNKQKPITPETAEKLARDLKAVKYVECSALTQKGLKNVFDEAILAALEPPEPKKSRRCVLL

Target: GST-PAK1-PBD (Pak1-binding domain of Pak1 fused to GST, on beads) (UniProt Q13153)
Test: pull-down; only the target purified

binding: binds
Substance: Cell division cycle 42 (CDC42), GTP-bound active form (from UniProt P60953 1-191)

These are yes or no findings as the source states them, for the method shown. Binding seen in cells or lysates may run through a third protein. Binding can be weak; no strength is given.
